# Assay results taken from PubChem BioAssay AID1671190 (National Center for Advancing Translational Sciences (NCATS), 2021).
# By UniProt entry, the sequences of proteins in these tests, tags left out.
# UniProt P18054, whole entry, looked up: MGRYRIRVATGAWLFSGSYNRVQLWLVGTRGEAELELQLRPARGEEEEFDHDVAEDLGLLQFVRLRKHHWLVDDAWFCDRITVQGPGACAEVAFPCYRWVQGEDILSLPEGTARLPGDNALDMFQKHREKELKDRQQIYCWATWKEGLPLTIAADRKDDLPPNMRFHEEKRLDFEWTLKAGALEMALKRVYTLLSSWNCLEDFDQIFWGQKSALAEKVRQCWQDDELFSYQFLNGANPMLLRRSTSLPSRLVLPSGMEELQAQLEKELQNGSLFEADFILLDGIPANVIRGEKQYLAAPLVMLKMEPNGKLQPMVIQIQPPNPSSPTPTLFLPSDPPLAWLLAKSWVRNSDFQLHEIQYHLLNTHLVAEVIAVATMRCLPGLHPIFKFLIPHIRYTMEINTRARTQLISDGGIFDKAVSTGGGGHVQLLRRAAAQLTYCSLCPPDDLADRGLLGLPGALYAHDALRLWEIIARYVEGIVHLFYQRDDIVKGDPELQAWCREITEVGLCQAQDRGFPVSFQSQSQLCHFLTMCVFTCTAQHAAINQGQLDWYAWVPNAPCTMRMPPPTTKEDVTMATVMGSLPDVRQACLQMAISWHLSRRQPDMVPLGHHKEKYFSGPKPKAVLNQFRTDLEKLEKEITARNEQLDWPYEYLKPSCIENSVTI
# Where “and” joins values, the source holds several entries; their conditions need not be identical. Equal entries are not always repeated. Screen size: about 580,000 compounds; about 6,100 (1.1%) were called active. This list was built around the results that the source calls inconclusive (neither active nor inactive); the mix of calls is not that of the screen. The call rests on the fitted dose curve; in most records, active means well fitted inhibition curve with a large enough effect; inconclusive means small, poorly fitted or top-dose-only effect, or another doubt; inactive means no such curve, though single readings can be large or run the other way. Potencies beside an inconclusive call are fits to weak or partial responses and may not hold up.
# Target: Polyunsaturated fatty acid lipoxygenase ALOX12 (Homo sapiens) (UniProt P18054)
# Assay: Primary qHTS assay for inhibitors of human arachidonate 12S-lipoxygenase (ALOX12): Round 2
# Conditions: purified 12hLO, xylenol orange hydroperoxide absorbance; activity change, negative = inhibition: at 108 µM (top of the series) unless noted
# In short: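 Hydroperoxide product was detected by ferrous iron/xylenol orange as the 573 to 405 nm absorbance ratio. Arachidonic acid at 40 uM (final) was turned over for 30 min at room temperature by 150 nM human 12hLO, pH 7.0 Hepes buffer, after 15 min compound preincubation.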
# On the % scale 0 is the no-effect control and ±100 the full control effect; potency means the concentration at half of the fitted maximal effect.
Structure (SMILES),"activity change, negative = inhibition",Potency
Cc1nc(N2CCN(CC(=O)N3CCCC3)CC2)c(C#N)c2c1COC(C)(C)C2,inactive: 0.987%,–
O=C(NCc1ccco1)c1nc2c(nnn2Cc2ccccc2Cl)c(=O)[nH]1,inactive: 9.54%,–
CNC(=O)[C@@H](c1ccccc1OC)N1CCC[C@H]1C(=O)N(C)CCN(C)C,–,"inconclusive: 6.31 µM [inhibitor, full curve]"
CCOC(=O)Nc1ccc2c(c1)N(C(=O)CCN(C)C)c1ccccc1S2,–,"inconclusive: 50.1 µM [inhibitor, partial curve, poor fit]"
Cc1c(NC(=S)/C=C2\N(C)c3ccccc3C2(C)C)c(=O)n(-c2ccccc2)n1C,–,"inconclusive: 44.7 µM [inhibitor, partial curve]"
Cc1ccc(OCc2nc(C#N)c(NCc3ccncc3)o2)c(C)c1,inactive: -17.8%,–
CCCc1cc(C(=O)NNC(=S)NCc2ccccc2)cs1,–,"inconclusive: 5.01 µM [inhibitor, full curve, poor fit]"
CCCOC(=O)c1c(-c2ccc(C)cc2)csc1NC(=O)c1ccoc1C,–,"inconclusive: 39.8 µM [inhibitor, partial curve, poor fit]"
Cc1ccc(CN(C)C(=O)c2cccc(S(=O)(=O)N3CCN(c4ccccc4)CC3)c2)cc1,inactive: 0.729%,–
CCOc1cc(OCC)cc(C(=O)NC(=S)Nc2cccc(C(F)(F)F)c2)c1,–,"inconclusive: 3.16 µM [inhibitor, full curve, poor fit]"
CCN(CC)CCCNc1oc(/C=C/c2cccs2)nc1C#N,–,"inconclusive: 35.5 µM [inhibitor, partial curve, poor fit]"
CCOc1ccccc1CNC(=O)c1c(C)noc1-c1cccs1,inactive: 14.3%,–
O=C(CSc1ccccn1)Nc1nc2ccccc2s1,–,"inconclusive: 89.1 µM [inhibitor, partial curve, poor fit]"
C1=CCC(CN2CCN(Cc3ccco3)CC2)CC1 (centres undefined),–,"inconclusive: 0.224 µM [inhibitor, full curve, poor fit]"
CC(C)(C)C(=O)Nc1nc(=S)ss1,–,"inconclusive: 39.8 µM [inhibitor, partial curve, poor fit]"
CCOC(=O)C(C)(C)N(Cc1ccc(C)cc1)S(=O)(=O)c1ccc(Cl)c([N+](=O)[O-])c1,inactive: -0.937%,–
Oc1ccc(N=Nc2c(O)ccc3ccccc23)cc1,–,"inconclusive: 17.8 µM [inhibitor, full curve]"
O=C(Cc1ccc(Br)cc1)N1CCN(c2ccccc2)CC1,–,"inconclusive: 5.62 µM [inhibitor, single point] and inconclusive: 25.1 µM [inhibitor, single point]"
CCC(C)(C)n1nnnc1C(c1cc2cc(C)ccc2[nH]c1=O)N1CCCc2ccccc21 (centres undefined),–,"inconclusive: 0.708 µM [inhibitor, full curve, poor fit]"
C/C(=N/O)c1cnn(-c2ccccc2)c1C,inactive: 35.8%,–
O=[N+]([O-])c1ccc(-c2ccc(/C=N/c3c(-c4ccco4)nc4ccccn34)o2)cc1,inactive: -28.4%,–
CN(C(=O)CCl)C1CCCc2ccccc21 (centres undefined),–,"inconclusive: 15.8 µM [inhibitor, full curve]"

# Quoted at random: 2 records from the list, in no set order.
Structure (SMILES),"activity change, negative = inhibition",Potency
C/C(=N/O)c1cnn(-c2ccccc2)c1C,inactive: 35.8%,–
CCOc1cc(OCC)cc(C(=O)NC(=S)Nc2cccc(C(F)(F)F)c2)c1,–,"inconclusive: 3.16 µM [inhibitor, full curve, poor fit]"

# Continued:

Structure (SMILES),"activity change, negative = inhibition",Potency
O=C1NN(C(=O)Nc2ccc(Br)cc2)C(c2ccccc2)C1c1ccccc1 (centres undefined),–,"inconclusive: 39.8 µM [inhibitor, single point]"
CCCCCSc1nc2sc3c(c2c(=O)n1-c1ccccc1)CCN(C(C)=O)C3,–,"inconclusive: 25.1 µM [inhibitor, full curve]"
O=C(Cn1ccn2nc(-c3ccccc3)c(CO)c2c1=O)Nc1ccccc1F,–,"inconclusive: 89.1 µM [inhibitor, single point]"
COc1ccc(CN2Cc3[nH]nc(-c4cccc(NC(C)=O)c4)c3CC2=O)cc1,–,"inconclusive: 35.5 µM [inhibitor, single point]"
CON(C)C(=O)CC(CNC(=O)OC(C)(C)C)c1ccc(Cl)cc1 (centres undefined),inactive: -4.09%,–
CC1=CC(C)C(/C=N/NC(N)=S)C(C)C1 (centres undefined),–,"inconclusive: 39.8 µM [inhibitor, partial curve, poor fit]"
O=C(c1cccs1)N1C[C@@H](n2cc(C3CC3)nn2)[C@H](O)C[C@@H]1c1ccc(Cl)cc1,–,"inconclusive: 0.794 µM [inhibitor, full curve, poor fit]"
CC(=O)Nc1ccc(S(=O)(=O)Nc2nnc(C3CCCCC3)s2)cc1,–,"inconclusive: 22.4 µM [inhibitor, partial curve, poor fit]"
COCC1CN(Cc2cnn(C(C)C)c2)CC12CCNCC2 (centres undefined),–,"inconclusive: 50.1 µM [inhibitor, partial curve]"
COc1ccc(C(=O)Nc2cnn(Cc3ccc(Cl)cc3)c2)cc1OC,inactive: -16.9%,–
COc1ccc(C(=O)CSc2nnc(-c3cnccn3)n2Cc2ccco2)cc1,–,"inconclusive: 44.7 µM [inhibitor, partial curve, poor fit]"
COc1ccc(NC(=O)c2cc(C3CCCCN3C(=O)Cc3ccc(N(C)C)cc3)on2)c(C)c1 (centres undefined),inactive: 6%,–
COc1ccc(N2C(=O)CC2(/C=C/c2ccccc2OC)C(=O)NC2CCCC2)cc1 (centres undefined),–,"inconclusive: 44.7 µM [inhibitor, partial curve]"
CCOc1ccc(CCNC(=O)c2ccc(Nc3nc4ccccc4n4nnnc34)cc2)cc1OCC,–,"inconclusive: 126 µM [inhibitor, partial curve, poor fit]"
Cc1sc2nc(NCC(C)O)n3nc(-c4ccco4)nc3c2c1C (centres undefined),–,"inconclusive: 44.7 µM [inhibitor, partial curve, poor fit]"
CCCSc1nnc2c(n1)OC(c1sccc1C)Nc1ccccc1-2 (centres undefined),–,"inconclusive: 158 µM [inhibitor, single point]"
C[C@@H]1CN([C@@H](C)CO)C(=O)CCCn2cc(nn2)CO[C@H]1CN(C)C(=O)Nc1ccc(N2CCN(C)CC2)cc1,–,"inconclusive: 79.4 µM [inhibitor, partial curve, poor fit]"
COc1cccc(NC2=NCC(=O)N2Cc2cccs2)c1,–,"inconclusive: 3.55 µM [inhibitor, full curve, poor fit]"
C#CCOCCOCCOCCNc1nc(N2CCN(C(=O)Cn3cc(CCCN=C(N)N)nn3)CC2)nc(N2CCN(C(=O)[C@H](C)n3cc(CCCN=C(N)N)nn3)CC2)n1,–,"inconclusive: 35.5 µM [inhibitor, partial curve, poor fit]"
COc1ccc(CSCCc2n[nH]c(=S)n2-c2ccccc2)cc1,–,"inconclusive: 44.7 µM [inhibitor, partial curve]"
Cn1cc(CN2Cc3ccc(C(=O)Nc4nccs4)cc3OCC2=O)cn1,–,"inconclusive: 0.794 µM [inhibitor, full curve, poor fit]"
CCOC(=O)Cc1csc(SC(C)C(=O)Nc2ccc(NC(C)=O)cc2)n1 (centres undefined),inactive: 0%,–

Structure (SMILES),"activity change, negative = inhibition",Potency
Cc1ccc(-n2cccc2/C=C(/C#N)c2ccc(F)cc2)cc1,–,"inconclusive: 39.8 µM [inhibitor, partial curve, poor fit]"
COc1ccc(/C=C/C(=O)NC(=S)N2CCCCC2)cc1OC,inactive: -6.13%,–
Cc1nc2ccc(N)nc2nc1C,–,"inconclusive: 39.8 µM [inhibitor, partial curve, poor fit]"
COc1ccc(-n2nnnc2SCC(=O)NC(C)c2ccc(-c3ccccc3)cc2)cc1 (centres undefined),–,"inconclusive: 126 µM [inhibitor, single point]"
O=[N+]([O-])c1ccc2c([N+](=O)[O-])ccc3c2c1CC3,–,"inconclusive: 50.1 µM [inhibitor, partial curve, poor fit]"
Cc1ccc(Oc2ccccc2/C=N/O)cc1,inactive: 0%,–
Cc1ccc2cc(C3CC(c4ccco4)=NN3C(=O)CCC(=O)O)c(Cl)nc2c1 (centres undefined),inactive: -10.2%,–
COC(=O)c1ccccc1NC(=O)CN1CCc2ccccc2C1,–,"inconclusive: 7.94 µM [inhibitor, full curve, poor fit]"
Cc1ccc(CN2CCN(Cc3cc(=O)c4ccccc4[nH]3)CC2CCO)o1 (centres undefined),inactive: 0.935%,–
Cc1nc(NC(=O)c2ccc([N+](=O)[O-])cc2Cl)sc1C(=O)N(C)C,–,"inconclusive: 35.5 µM [inhibitor, partial curve, poor fit]"
CC(C)c1ccc(NC(=O)CN2CCN(C(=O)C3CCCO3)CC2)cc1 (centres undefined),inactive: 0%,–
COc1ccc(C(=O)c2ccccc2)c2c(O)ccc(C(=O)c3ccccc3)c12,inactive: 1.99%,–
C=C1C2(C(=O)NCc3ccco3)CCC(C2)C1(C)C (centres undefined),–,"inconclusive: 50.1 µM [inhibitor, partial curve, poor fit]"
O=C(O)c1cc(S(=O)(=O)Nc2cc(Cl)ccc2Oc2ccccc2)ccc1O,–,"inconclusive: 31.6 µM [inhibitor, partial curve, poor fit]"
Cc1ccnc(SCc2ccc(F)cc2)n1,–,"inconclusive: 7.94 µM [inhibitor, full curve]"
Cc1nnc(N2C(=O)C(=O)/C(=C(/O)c3ccc4c(c3)OCCO4)C2c2cccc([N+](=O)[O-])c2)s1 (centres undefined),–,"inconclusive: 44.7 µM [inhibitor, partial curve, poor fit]"
O=C(CCc1nc(-c2ccsc2)no1)Nc1ccc(N2CCOCC2)cc1,–,"inconclusive: 28.2 µM [inhibitor, partial curve]"
COc1cc(-c2nccc3c(=O)cc(N(C)c4ccccc4)oc23)ccn1,–,"inconclusive: 126 µM [inhibitor, single point]"
Cc1ccc(S(=O)(=O)Cc2ccc(C(=O)N3CCc4ccccc4C3)o2)cc1,–,"inconclusive: 44.7 µM [inhibitor, partial curve, poor fit]"
CCOC(=O)CSc1nc2c(c(=O)[nH]c(=O)n2C)n1C(C)C,–,"inconclusive: 50.1 µM [inhibitor, partial curve, poor fit]"
